Results deposited as PubChem BioAssay AID686938 (Drosophila RNAi Screening Center, 2013)
The screen tested about 23,000 reagents; shown is a random part of those with a known target gene and a result. Of all reagents, 75 (0.33%) are marked active. 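Raw plate signals without normalisation; calls rest on plate z-scores that were not deposited; ratio present for only 364 wells.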 Reagents against one gene are numbered here. Names joined by + are all predicted targets of the reagent. Reagent sequences are not shown. Not stated in the record: the dose of the treatment.

Purpose: 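Looking for CRAC channel components and the factors controlling them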 (primary screen)
Cell system: Drosophila S2R+ cells
Reagents: long dsRNA against Drosophila genes, about 0.25 µg dsRNA per well, roughly 10,000 cells
Duration: 5 days of knock-down before the calcium assay
Conditions: thapsigargin (SERCA pump blocker) to empty calcium stores; entry signal taken 4 min after adding it
Measurement: 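Duplicate raw fluo-4 intensities per well from a plate reader, at rest and four minutes after thapsigargin emptied calcium stores; entry-to-rest ratio filled for only some wells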
Reading the numbers: calcium entry signal: higher = stronger calcium signal after store depletion; resting calcium signal: higher = higher resting calcium signal
Active means: 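Called when the plate z-score of the entry-to-rest ratio, mean of duplicates, falls below −3; wells with low overall dye signal (Fmax z below −2) or more than five off-targets excluded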
Meaning of the calls: active = strongly reduced calcium entry; inactive = no strong reduction

calcium entry signal, replicate 1 (fluorescence units) | calcium entry signal, replicate 2 (fluorescence units) | resting calcium signal, replicate 1 (fluorescence units) | resting calcium signal, replicate 2 (fluorescence units) | call | gene | reagent
3.97e7 | 5.51e7 | 1.67e7 | 2.46e7 | inactive | Pex11ab | 1
4.29e7 | – | 2.18e7 | – | inactive | Naa35 | 1
3.38e7 | 3.24e7 | 1.73e7 | 1.46e7 | inactive | ND-42 | 1
5.30e7 | 3.44e7 | 2.36e7 | 1.45e7 | inactive | CG30278 | 1
4.51e7 | 3.71e7 | 2.07e7 | 1.82e7 | inactive | CG42634 + CG42635 | 1
4.20e7 | 1.98e7 | 1.81e7 | 9.96e6 | inactive | cort | 1
3.13e7 | 4.08e7 | 1.53e7 | 2.05e7 | inactive | tws | 1
2.76e7 | 4.48e7 | 1.42e7 | 2.36e7 | inactive | tws | 2
3.82e7 | 3.94e7 | 1.80e7 | 1.86e7 | inactive | MFS10 | 1
4.58e7 | 4.61e7 | 2.19e7 | 2.09e7 | inactive | CG9257 | 1
3.23e7 | 3.32e7 | 1.56e7 | 1.54e7 | inactive | slf | 1
2.43e7 | 3.07e7 | 1.30e7 | 1.59e7 | inactive | ninaG | 1
2.35e7 | 4.26e7 | 1.22e7 | 1.78e7 | inactive | sm | 1
3.25e7 | 2.82e7 | 1.53e7 | 1.44e7 | inactive | sm | 2
3.42e7 | 3.59e7 | 1.45e7 | 1.64e7 | inactive | CG2519 | 1
3.56e7 | 4.38e7 | 1.83e7 | 2.12e7 | inactive | gudu | 1
5.12e7 | 4.86e7 | 2.37e7 | 1.94e7 | inactive | CG14427 | 1
3.69e7 | 3.93e7 | 1.78e7 | 1.72e7 | inactive | ric8a | 1
3.56e7 | 3.97e7 | 1.84e7 | 1.79e7 | inactive | CG3568 | 1
5.79e7 | 3.74e7 | 2.80e7 | 1.69e7 | inactive | CG43446 | 1
1.90e7 | 4.64e7 | 1.29e7 | 4.08e7 | inactive | Poxn | 1
3.79e7 | 3.82e7 | 1.55e7 | 1.84e7 | inactive | Poxn | 2
3.98e7 | 6.22e7 | 2.05e7 | 2.69e7 | inactive | Nepl17 | 1
4.43e7 | 4.25e7 | 6.15e7 | 1.94e7 | inactive | CG7685 | 1
2.76e7 | 2.96e7 | 1.42e7 | 1.25e7 | inactive | CecB | 1
4.22e7 | 3.36e7 | 2.23e7 | 1.54e7 | inactive | Sdb | 1
3.72e7 | 3.61e7 | 1.86e7 | 1.66e7 | inactive | Sdb | 2
3.80e7 | 3.80e7 | 1.67e7 | 1.70e7 | inactive | Sdb | 3
3.59e7 | 4.23e7 | 1.72e7 | 1.83e7 | inactive | teq | 1
3.16e7 | 3.44e7 | 1.67e7 | 1.63e7 | inactive | teq | 2
3.08e7 | 4.27e7 | 1.47e7 | 1.84e7 | inactive | teq | 3
4.72e7 | 6.22e7 | 3.49e7 | 2.39e7 | inactive | mRpL35 | 1
2.11e7 | 2.07e7 | 1.07e7 | 1.18e7 | inactive | CG13185 | 1
3.58e7 | 4.19e7 | 1.90e7 | 1.85e7 | inactive | ppk30 | 1
3.77e7 | 4.34e7 | 1.85e7 | 1.85e7 | inactive | Cad74A | 1
4.58e7 | 6.51e7 | 2.22e7 | 2.62e7 | inactive | CG4907 | 1
3.87e7 | 2.25e7 | 2.71e7 | 1.03e7 | inactive | Srg2 | 1
4.21e7 | 7.68e7 | 2.07e7 | 2.66e7 | inactive | mRpL43 | 1
4.95e7 | 4.29e7 | 2.51e7 | 1.53e7 | inactive | mRpL43 | 2
5.16e7 | – | 2.46e7 | – | inactive | Tgt | 1
2.94e7 | 4.16e7 | 1.38e7 | 2.96e7 | inactive | CG3698 | 1
3.43e7 | 5.37e7 | 1.70e7 | 2.67e7 | inactive | CG9686 | 1
4.78e7 | 6.36e7 | 2.21e7 | 2.75e7 | inactive | CG10353 | 1
3.56e7 | 4.40e7 | 1.85e7 | 1.89e7 | inactive | Sld5 | 1
4.02e7 | 4.81e7 | 2.10e7 | 2.17e7 | inactive | Nep3 | 1
2.70e7 | 3.16e7 | 1.40e7 | 1.39e7 | inactive | CG13014 | 1
4.11e7 | 2.55e7 | 1.82e7 | 1.12e7 | inactive | CG17996 + Tsen2 | 1
2.91e7 | 5.98e7 | 1.38e7 | 2.46e7 | inactive | CG14561 | 1
2.72e7 | 4.60e7 | 1.39e7 | 2.14e7 | inactive | CG8219 | 1
4.74e7 | 4.12e7 | 2.78e7 | 1.88e7 | inactive | Svip | 1
2.78e7 | 4.33e7 | 1.43e7 | 2.12e7 | inactive | Pa1 | 1
3.97e7 | 2.87e7 | 2.95e7 | 1.60e7 | inactive | nebu | 1
2.17e7 | 2.97e7 | 1.20e7 | 1.27e7 | inactive | nebu | 2
3.37e7 | 3.85e7 | 1.69e7 | 1.85e7 | inactive | CG9360 | 1
3.38e7 | 4.20e7 | 1.75e7 | 2.14e7 | inactive | CG2889 | 1
4.71e7 | 3.84e7 | 2.14e7 | 1.88e7 | inactive | CG4935 | 1
2.73e7 | 4.58e7 | 1.33e7 | 1.79e7 | inactive | Cpr76Bb | 1
1.71e7 | 3.30e7 | 9.87e6 | 1.43e7 | inactive | Cpr76Bb | 2

Part of the list above in another layout.
calcium entry signal, replicate 1 (fluorescence units)	calcium entry signal, replicate 2 (fluorescence units)	resting calcium signal, replicate 1 (fluorescence units)	resting calcium signal, replicate 2 (fluorescence units)	call	gene	reagent
5.16e7		2.46e7		inactive	Tgt	1
2.94e7	4.16e7	1.38e7	2.96e7	inactive	CG3698	1
3.43e7	5.37e7	1.70e7	2.67e7	inactive	CG9686	1
4.78e7	6.36e7	2.21e7	2.75e7	inactive	CG10353	1
3.56e7	4.40e7	1.85e7	1.89e7	inactive	Sld5	1
4.02e7	4.81e7	2.10e7	2.17e7	inactive	Nep3	1
2.70e7	3.16e7	1.40e7	1.39e7	inactive	CG13014	1
4.11e7	2.55e7	1.82e7	1.12e7	inactive	CG17996 + Tsen2	1
